Data from PubChem BioAssay AID488837 (National Center for Advancing Translational Sciences (NCATS), 2010).
The whole screen tested about 330,000 compounds, of which about 20 (0.006%) were called active. Inconclusive means that the source gave no clear call. Such entries were picked first, then a sample of the others. The call rests on the fitted dose curve; in most records, active means well fitted inhibition curve with a large enough effect; inconclusive means small, poorly fitted or top-dose-only effect, or effect the other way; inactive means flat fitted curve, though single readings scatter. A potency beside an inconclusive call is a rough fit, not a confirmed value.

Chains of the proteins cited; added tags and fusions are not shown. Lines headed by an entry give the natural chain unless they say otherwise; changes in a name come on top.
UniProt O00167: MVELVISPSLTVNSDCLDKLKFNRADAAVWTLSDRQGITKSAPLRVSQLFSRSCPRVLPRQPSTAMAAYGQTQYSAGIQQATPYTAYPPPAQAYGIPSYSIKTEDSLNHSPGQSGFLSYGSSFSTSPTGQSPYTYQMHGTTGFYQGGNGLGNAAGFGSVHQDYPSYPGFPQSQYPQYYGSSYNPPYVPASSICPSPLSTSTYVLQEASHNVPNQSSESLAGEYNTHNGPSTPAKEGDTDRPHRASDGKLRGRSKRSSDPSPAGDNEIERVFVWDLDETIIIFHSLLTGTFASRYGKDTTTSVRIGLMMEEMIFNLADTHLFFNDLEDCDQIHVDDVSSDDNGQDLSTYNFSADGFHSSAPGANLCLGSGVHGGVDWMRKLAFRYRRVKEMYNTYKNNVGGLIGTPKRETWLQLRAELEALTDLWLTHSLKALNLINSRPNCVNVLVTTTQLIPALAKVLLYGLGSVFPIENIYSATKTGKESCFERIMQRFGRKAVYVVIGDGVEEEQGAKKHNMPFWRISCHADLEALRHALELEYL

Target: Protein phosphatase EYA2 (Homo sapiens) (UniProt O00167)
Assay: qHTS Assay for Inhibitors of the Phosphatase Activity of Eya2
Conditions: recombinant Eya2, OMFP fluorescence dephosphorylation (OMFP is methylfluorescein phosphate); activity, negative = inhibition: at 76.9 µM (top of the series) unless noted
In short: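 Eya2 (0.2 uM) preincubated 10 min at ambient with compound, then OMFP substrate added at 50 uM; 10 min reaction in 50 mM HEPES pH 7.5, 50 mM NaCl, 5 uM MgCl2, 0.05% BSA, 1 mM DTT. Fluorescence read at Ex 485/Em 525 nm.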
On the % scale 0 is the no-effect control and ±100 the full control effect; potency means the concentration at half of the fitted maximal effect.

| Structure (SMILES) | Potency | activity, negative = inhibition |
| --- | --- | --- |
| C=C1C(=O)C=C2CN(C(=O)c3ccccc3)[C@@](Cc3ccc(F)cc3)(C(=O)OC)[C@@H]12 | inactive |  |
| Cc1nnsc1NC(=O)OCc1ccccc1Cl | inconclusive: 112 µM [inhibitor, single point] |  |
| CCCOc1ccc(C(=O)OCC(=O)c2c(N)n(C)c(=O)n(C)c2=O)cc1OC | inconclusive: 14.1 µM [inhibitor, partial curve] |  |
| CC(C)NC(=S)Nc1c(N)[nH]c(=O)[nH]c1=O | inconclusive: 63.1 µM [inhibitor, partial curve, poor fit] |  |
| O=C(Nc1ccc(-c2nc3ccccc3o2)cc1)c1ccc(N2C(=O)C3C4C=CC(C4)C3C2=O)cc1 (stereo unspecified) | inactive |  |
| COc1cc(OC)cc(-c2nnc(NC(=O)Cc3ccc(F)cc3)o2)c1 | inconclusive: 89.1 µM [inhibitor, single point] |  |
| CCC(=O)c1ccc(OCC(O)CN2CCN(c3cccc(C(F)(F)F)c3)CC2)cc1 (stereo unspecified) | inconclusive: 50.1 µM [inhibitor, partial curve] |  |
| OCC1O[C@H]([S-])[C@H](O)[C@@H](O)[C@@H]1O.[Au+] (stereo partly specified) | inactive |  |
| CCOC(=O)C1(Cc2cccc(OC)c2)CCN(Cc2cccc(OC)c2OC)CC1 | inconclusive: 28.2 µM [inhibitor, single point] |  |
| COc1ccc(Nc2nc3c(C)cccc3cc2C#N)cc1 | inconclusive: 141 µM [inhibitor, partial curve] |  |
| CC(C)CC1=NN2C(=N)/C(=C\c3coc4ccccc4c3=O)C(=O)N=C2S1 | inconclusive: 126 µM [activator, partial curve] |  |
| COC(=O)c1cccc(NC(=O)COC(=O)CSc2nc(C)cc(C)n2)c1 | inconclusive: 89.1 µM [inhibitor, single point] |  |
| CCC(C)C(NC(C)=O)C(=O)NC(=O)NC(c1ccccc1)c1ccccc1 (stereo unspecified) | inconclusive: 17.8 µM [inhibitor, single point] |  |
| O=c1nc2c(O)cccn2c2c1c(=O)[nH]c1ccccc12 | inactive |  |
| Nc1nc(-c2ccc(Oc3ccccc3)cc2)cs1 | inconclusive: 89.1 µM [inhibitor, single point] |  |
| Nc1sc2c(c1C(=O)NC1CC1)CCCC2 | inconclusive: 25.1 µM [inhibitor, partial curve] |  |
| COc1ccccc1NCCC(=O)O | inactive |  |
| COc1ccc(NC(=O)COC(=O)c2n[nH]c3ccccc23)c(OC)c1 | inconclusive: 25.1 µM [inhibitor, partial curve] |  |
| COc1ccc(/C=C(\NC(=O)c2ccccc2)C(=O)NC2CCS(=O)(=O)C2)cc1 (stereo unspecified) | inconclusive: 100 µM [inhibitor, single point] |  |
| O=[N+]([O-])c1ccc(-c2csc(Nc3ccccc3)[n+]2Cc2ccccc2)cc1 | inactive |  |
| CN(C)c1ccc(/C=N/N2C(=O)c3ccccc3C2=O)cc1 | inconclusive: 100 µM [inhibitor, single point] |  |
| CCN(CC)c1ccc(/C=C/C(=O)C2C(=O)C=C(C)OC2=O)cc1 (stereo unspecified) | inconclusive: 100 µM [activator, partial curve] |  |
| O=C(O)CCC(=O)N1CCc2c([nH]c3ccccc23)C1C(F)(F)F (stereo unspecified) | inconclusive: 89.1 µM [inhibitor, single point] |  |
| COc1ccc(NCc2nnc(SCC(=O)Nc3ccccc3)n2C)cc1 | inactive |  |

| Structure (SMILES) | Potency | activity, negative = inhibition |
| --- | --- | --- |
| COc1ccc([C@]23Cc4ccccc4C(O2)C2=C(CC4(CCCCC4)OC2=O)O3)cc1 |  | inactive: -13.1% [at 15.4 µM] |
| CC(C)(C)c1ccc(OCC(=O)Nc2ccncc2)c(Br)c1 | inconclusive: 20 µM [inhibitor, single point] |  |
| COc1cccc(-c2c(C(=O)N/N=C(\C)c3ccncc3)nnn2-c2nonc2N)c1 | inactive |  |
| Cc1cc(S(=O)(=O)N2CCOCC2)ccc1OCC(=O)Nc1ccc(F)cc1 | inactive |  |
| Oc1ccccc1/C=N/n1c(COc2ccccc2)n[nH]c1=S | inactive |  |
| CC(=O)Nc1ccc(S(=O)(=O)NC(CC(=O)N(C)Cc2ccccc2)C(C)C)cc1 (stereo unspecified) | inactive |  |
| CCN(CC)CCCN=Cc1c(O)n(-c2cccc(C)c2)c(=O)c2ccccc12 | inactive |  |
| CCN(CC)C(=O)Cn1cnc2sc(C(=O)NCCCN3CCOCC3)c(C)c2c1=O | inconclusive: 14.1 µM [inhibitor, single point] |  |
| COc1cc(NC(=O)c2sc(C)nc2C)c(OC)cc1NC(=O)c1ccccc1 | inconclusive: 20 µM [inhibitor, single point] |  |
| COc1ccc(N/C(=N/c2nc(C)cc(C)n2)NC(=O)c2ccccc2)cc1 | inconclusive: 25.1 µM [inhibitor, single point] |  |
| N#Cc1cccc(C(=O)OCc2cccc(S(=O)(=O)N3CCOCC3)c2)c1 | inconclusive: 17.8 µM [inhibitor, single point] |  |
| Cc1cccc(N2C(=O)/C(=C/c3cccnc3)SC2=S)c1 | inconclusive: 100 µM [inhibitor, partial curve] |  |
| CCc1ccc(S(=O)(=O)/N=C2\C=CC(=O)c3ccccc32)cc1 | inactive |  |
| COc1ccc(N2CCN(C3CCCN(Cc4ccc(F)cc4Cl)C3)CC2)cc1 (stereo unspecified) | inconclusive: 20 µM [inhibitor, single point] |  |
| Nc1nc(SCC(=O)Nc2ccc(OCc3ccccc3)cc2)n[nH]1 | inconclusive: 100 µM [inhibitor, single point] |  |
| CCCC1(c2ccccc2)NC(=O)N(CC(=O)NCc2ccc(OC)cc2)C1=O (stereo unspecified) | inconclusive: 22.4 µM [inhibitor, single point] |  |
| CCOc1ccc(-c2ccc(SCC(=O)Nc3nnc(C)s3)nn2)cc1 | inconclusive: 79.4 µM [inhibitor, single point] |  |
| CC(C)=CCC/C(C)=C/CC/C(C)=C/CC/C(C)=C/CC1=C(C)C(=O)c2ccccc2C1=O | inactive |  |
| OCC1(Cc2ccccc2C(F)(F)F)CCN(Cc2ccncc2)CC1 | inconclusive: 251 µM [inhibitor, partial curve, poor fit] |  |
| COc1ccccc1C(=O)Nc1ccnn1C1CCN(C(=O)C(C)(C)C)CC1 | inconclusive: 22.4 µM [inhibitor, single point] |  |
| Oc1ccc(Nc2ncnc3ccccc23)cc1 | inconclusive: 141 µM [inhibitor, partial curve, poor fit] |  |
| Cc1ccc(NC(=O)c2nc[nH]c2C(=O)NCCCCCNC(=O)OC(C)(C)C)cc1 | inactive |  |
| CC1CCc2[nH]c3ccc(C(=O)N(C)CC(=O)Nc4ccccc4Br)cc3c2C1 (stereo unspecified) | inactive |  |
| OC1(c2ccc(Cl)cc2)CCN(Cc2cn[nH]c2-c2ccccc2)CC1 | inconclusive: 89.1 µM [inhibitor, single point] |  |

| Structure (SMILES) | Potency | activity, negative = inhibition |
| --- | --- | --- |
| CS(=O)(=O)N(CC(=O)N1CCCCCC1)c1ccc(Cl)cc1 | inconclusive: 282 µM [inhibitor, single point] |  |
| O=S(=O)(c1ccc2nc(Nc3ccccc3)ccc2c1)N1CCCCC1 | inactive |  |
| COc1cc(C=O)ccc1OCCSc1ccc(Cl)cc1 | inconclusive: 25.1 µM [inhibitor, single point] |  |
| O=C(CCn1nc(-c2ccc(Cl)cc2)ccc1=O)N1CCN(c2ccccc2)CC1 | inconclusive: 126 µM [inhibitor, single point] |  |
| C#CCOc1c(Cl)cc(/C=C2/C(=O)ON=C2C)cc1OCC | inactive |  |
| COc1ccccc1NC(=O)CCCNC(=O)Cn1cnc2sc(C)c(C)c2c1=O | inactive |  |
| Cc1c(CCC(=O)O)c(=O)oc2cc3occ(-c4ccccc4)c3cc12 | inconclusive: 112 µM [inhibitor, single point] |  |
| Cc1cccc(-c2nc3ccccc3c(=O)n2NC(=O)/C=C/c2ccc([N+](=O)[O-])cc2)c1 | inactive |  |
| CCCCC(=O)Nc1cccc(NC(=O)c2cccnc2Cl)c1 | inconclusive: 100 µM [inhibitor, single point] |  |
| O=C(NN=C1CCCC1)c1[nH]c2ccc(Br)cc2c1-c1ccccc1 | inconclusive: 20 µM [inhibitor, partial curve, poor fit] |  |
| Cc1c(CC(=O)O)c(=O)oc2cc3occ(-c4ccccc4)c3cc12 | inactive |  |
| Cc1nc2c(s1)sc1ccccc12 | inactive |  |
| Cn1c(=O)n(C)c2cc(NC(=O)COc3ccc(F)cc3)ccc21 | inconclusive: 100 µM [inhibitor, single point] |  |
| CC(N=C(NS(=O)(=O)c1ccc(Cl)cc1)c1ccccc1)C(=O)O (stereo unspecified) | inconclusive: 15.8 µM [inhibitor, single point] |  |
| COc1cccc(C(NC(C)=O)c2ccc3cccnc3c2O)c1 (stereo unspecified) | inactive |  |
| N#Cc1ccc(N2CCN(C(=O)c3cccs3)CC2)c(F)c1 | inconclusive: 89.1 µM [inhibitor, single point] |  |
| O=C1CC(c2ccccc2Cl)c2c(sc3c(=O)[nH]c(CCl)nc23)N1 (stereo unspecified) | inconclusive: 100 µM [inhibitor, single point] |  |
| O=C(O)c1cc2c(cn1)[nH]c1ccccc12 | inconclusive: 224 µM [inhibitor, partial curve, poor fit] |  |
| Cc1ccc(C(=O)NC(=S)NCc2ccco2)cc1 | inconclusive: 112 µM [inhibitor, single point] |  |
| COc1ccc(S(=O)(=O)N2CCOCC2)cc1NC(=O)CN1C(=O)NC(C)(C2CC2)C1=O (stereo unspecified) | inconclusive: 89.1 µM [inhibitor, single point] |  |
| CCOc1ccc(NC(=O)c2ccc(S(=O)(=O)N3CCOCC3)cc2)cc1 | inconclusive: 89.1 µM [inhibitor, single point] |  |
| CCOC(=O)c1nc(Nc2ccc(C(=O)O)cc2)c2ccccc2n1 | inactive |  |
| c1ccc(-c2ccc3c(c2)NC(C2Nc4cc(-c5ccccc5)ccc4O2)O3)cc1 (stereo unspecified) | inconclusive: 89.1 µM [inhibitor, single point] |  |

Ordered by molar mass (ascending): some entries from above.

| Structure (SMILES) | Potency | activity, negative = inhibition |
| --- | --- | --- |
| Cc1nc2c(s1)sc1ccccc12 | inactive |  |
| Cc1ccc(C(=O)NC(=S)NCc2ccco2)cc1 | inconclusive: 112 µM [inhibitor, single point] |  |
| C#CCOc1c(Cl)cc(/C=C2/C(=O)ON=C2C)cc1OCC | inactive |  |
| Cc1c(CC(=O)O)c(=O)oc2cc3occ(-c4ccccc4)c3cc12 | inactive |  |
